Measurements published in article PMC5381226.
These are yes or no findings as the source states them, for the method shown. In cells and extracts the contact can be indirect. Here binding means that the protein was enriched with, or labelled near, the bait; the list need not be complete.

Sequences of proteins named here, by UniProt entry; tags and fusion partners are left off. Residues count along the entry.
UniProt Q80V62: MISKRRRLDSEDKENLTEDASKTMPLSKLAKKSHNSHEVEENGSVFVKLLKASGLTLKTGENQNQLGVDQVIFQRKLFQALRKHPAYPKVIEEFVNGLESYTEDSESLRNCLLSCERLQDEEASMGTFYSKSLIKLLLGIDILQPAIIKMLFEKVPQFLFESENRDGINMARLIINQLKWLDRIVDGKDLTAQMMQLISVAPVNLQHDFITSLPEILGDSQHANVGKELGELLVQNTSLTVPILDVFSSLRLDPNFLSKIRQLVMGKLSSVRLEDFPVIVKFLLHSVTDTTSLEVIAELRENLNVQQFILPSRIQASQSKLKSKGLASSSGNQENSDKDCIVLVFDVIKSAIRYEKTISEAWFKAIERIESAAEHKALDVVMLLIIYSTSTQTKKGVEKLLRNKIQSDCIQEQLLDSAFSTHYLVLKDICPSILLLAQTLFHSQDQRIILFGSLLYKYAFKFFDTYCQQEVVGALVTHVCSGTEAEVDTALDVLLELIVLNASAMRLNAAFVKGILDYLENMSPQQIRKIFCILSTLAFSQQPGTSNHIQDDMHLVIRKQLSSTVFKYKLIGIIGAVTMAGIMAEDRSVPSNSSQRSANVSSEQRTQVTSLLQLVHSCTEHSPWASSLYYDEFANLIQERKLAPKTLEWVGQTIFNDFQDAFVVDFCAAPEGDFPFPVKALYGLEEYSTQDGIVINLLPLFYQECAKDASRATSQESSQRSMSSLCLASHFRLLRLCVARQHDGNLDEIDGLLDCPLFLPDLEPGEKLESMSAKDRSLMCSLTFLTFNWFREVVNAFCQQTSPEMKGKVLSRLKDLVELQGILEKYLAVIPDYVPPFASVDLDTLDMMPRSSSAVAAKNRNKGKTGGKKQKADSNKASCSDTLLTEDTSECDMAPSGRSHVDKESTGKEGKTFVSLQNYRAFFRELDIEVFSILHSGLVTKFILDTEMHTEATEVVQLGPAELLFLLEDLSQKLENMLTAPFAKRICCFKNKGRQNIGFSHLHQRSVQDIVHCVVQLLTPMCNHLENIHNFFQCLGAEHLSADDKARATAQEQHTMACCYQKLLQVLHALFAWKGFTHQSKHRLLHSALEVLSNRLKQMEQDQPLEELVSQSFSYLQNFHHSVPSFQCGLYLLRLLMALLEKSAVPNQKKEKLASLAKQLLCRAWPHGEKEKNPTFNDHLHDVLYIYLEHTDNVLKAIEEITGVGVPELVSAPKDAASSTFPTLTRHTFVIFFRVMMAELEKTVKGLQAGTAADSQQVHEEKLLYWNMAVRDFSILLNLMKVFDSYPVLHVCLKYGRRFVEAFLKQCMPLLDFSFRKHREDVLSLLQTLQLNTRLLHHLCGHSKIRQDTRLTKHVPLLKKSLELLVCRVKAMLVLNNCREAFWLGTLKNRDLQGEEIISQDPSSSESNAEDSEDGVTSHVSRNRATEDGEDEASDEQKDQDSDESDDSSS
UniProt Q9Z0X1, residues 102-612: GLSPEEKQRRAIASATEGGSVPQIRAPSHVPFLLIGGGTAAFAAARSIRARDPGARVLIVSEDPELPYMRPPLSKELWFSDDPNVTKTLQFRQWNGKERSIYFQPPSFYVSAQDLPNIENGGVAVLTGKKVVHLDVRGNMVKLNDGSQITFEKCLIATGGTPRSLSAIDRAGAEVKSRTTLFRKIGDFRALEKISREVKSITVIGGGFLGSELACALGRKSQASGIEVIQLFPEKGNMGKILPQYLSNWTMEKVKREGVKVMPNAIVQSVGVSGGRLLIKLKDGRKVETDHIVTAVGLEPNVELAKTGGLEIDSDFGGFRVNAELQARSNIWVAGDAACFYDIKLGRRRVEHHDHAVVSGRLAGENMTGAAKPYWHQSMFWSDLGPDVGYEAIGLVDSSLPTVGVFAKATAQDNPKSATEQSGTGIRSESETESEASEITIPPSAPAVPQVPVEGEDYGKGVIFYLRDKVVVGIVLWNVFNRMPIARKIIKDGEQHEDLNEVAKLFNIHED

Target: 3XFLAG/HA-tagged Fancd2 (mouse) (UniProt Q80V62)
Assay: affinity purification with mass spectrometry; two-step purification of tagged Fancd2 (anti-FLAG M2 agarose, FLAG peptide elution, then anti-HA beads, 4 °C) from lysates of ES cells, E11.5 embryos, testes and spleens of Fancd2 knock-in mice; mock purification from wild-type; LC-MS/MS

In the case of “Aifm (Apoptosis-Inducing Factor, Mitochondrion-Associated) (from UniProt Q9Z0X1 102-612)”, the binding is reported as “binds”.
